Among the data in PubChem BioAssay AID2685 (National Center for Advancing Translational Sciences (NCATS), 2010) are cell number change and AC50 values, retold here.

This is one part of the list. Further columns of the screen follow, without active or inactive calls. Most of these compounds were active or inconclusive in the main read-out, so they are no random draw. Words in brackets tell the shape of the fitted curve; partial curves, single points and poor fits give uncertain potencies.

The nature of this assay: qHTS Assay for Lipid Storage Modulators in Drosophila S3 Cells.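 For cell number change: cells counted by Cell Tracker Red CMTPX staining in the red channel.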 The settings on record: BODIPY lipid droplet fluorescence, 18-24 h; for cell number change: measured here: cell count max response, cells fed with added oleic acid. In a few lines:
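Drosophila S3 cells got compounds at several concentrations plus oleic acid (400 uM solution). Laser-scanning cytometry with 488 nm excitation read lipid droplets at 500-530 nm and cells at 575-640 nm. Percent activity was relative to 20 uM Triacsin C.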
A general note: In qHTS, concentration-response curves come from the screen itself.

Setting [1] is: measured here: lipid fluorescence (Fed channel) AC50, cells fed with added oleic acid.
[2] abbreviates: measured here: cell number channel AC50, cells fed with added oleic acid.

One may read the AC50 as the concentration giving half of the maximal activity seen. A higher AC50 goes with activity only at high concentration. On to `Cc1[nH]c2ccc(C(=O)N3CCN(c4ccccc4Cl)CC3)cc2c1C`, for which the cell number change was found to be 34%. For the same compound, under setting [1], the concentration at half-maximal activity (AC50) is 0.58 µM [rising, single point]. As for `CCn1c(N2CCN(C(=S)NCC(C)C)CC2)nc2ccccc21`, the cell number change was -145%. Besides, the AC50 under setting [2] is 5.17 µM [falling, full curve]. The concentration at half-maximal activity (AC50) under setting [1] was 6.51 µM [falling, full curve]. As for `COc1ccc(NC(=O)C2CCN(C(=O)C3CC(=O)N(c4ccc(C)cc4)C3)CC2)cc1` (stereo unspecified), the cell number change stood at 18.1%. Moreover, the half-maximal activity concentration (AC50) under setting [1] was 14.6 µM [rising, partial curve]. For `COC(=O)c1cccc(CSc2nc3ccccc3[nH]2)c1`, the cell number change amounted to 7.38%. In addition, the half-maximal activity concentration (AC50) under setting [1] was 2.06 µM [rising, full curve, poor fit]. For `CC(OC(=O)CCCC(=O)Nc1ccc(F)cc1)C(=O)c1ccccc1` (stereo unspecified), the cell number change amounted to 11.5%. As to `Cc1nn(Cc2ccc(C(=O)N3CCOCC3)o2)c(C)c1Br`, the cell number change amounted to 6.7%. Under setting [2], the concentration at half-maximal activity (AC50) was 6.51 µM [rising, single point]. The AC50 under setting [1] is 6.51 µM [rising, single point].

As to `COc1ccc(/C=C/C(=O)OCC(=O)N2CCCCCC2)c(OC)c1`, the cell number change was -7.35%. The half-maximal activity concentration (AC50) under setting [2] is 3.26 µM [rising, single point].

For the compound `CC(C)CCNC(=O)c1cc2c(s1)-c1ccccc1S(=O)(=O)C2`, the cell number change worked out at 21.7%. For the same compound, the half-maximal activity concentration (AC50) under setting [1] was 0.116 µM [rising, full curve, poor fit].

Turning to `CCc1cccc(NC(=O)CCc2nc3sc4c(c3c(=O)[nH]2)CCCC4)c1`, the cell number change turned out to be 75.1%. The AC50 under setting [2] is 14.6 µM [rising, partial curve].

For the compound `COc1ccc(NC(=O)c2scc(S(=O)(=O)C(C)C)c2N)cc1`, the cell number change is -12.6%. The concentration at half-maximal activity (AC50) under setting [1] is 0.651 µM [falling, single point].

As to `CCC(C)(C)C1CCC2(CC1)NC(=O)N(CC(=O)N1CCN(C(=O)c3ccco3)CC1)C2=O` (stereo unspecified), the AC50 under setting [1] is 23.1 µM [rising, single point].

Consider `c1ccc(COc2ccc(OCCCn3cncn3)cc2)cc1`, for which the cell number change was -39.5%. Also, the AC50 under setting [2] is 16.4 µM [falling, single point]. The AC50 under setting [1] was 1.64 µM [rising, partial curve, poor fit]. For the compound `Cc1ccc(-c2ccc(/C=N\NC(=O)C3C(=O)NCC3c3ccccc3)o2)cc1Cl` (stereo unspecified), the cell number change was -112%. In addition, the AC50 under setting [2] is 20.6 µM [falling, single point]. As for `CCCCOc1ccc(N(CC(=O)NC2CCCCC2)C(=O)c2snc(C(N)=O)c2N)cc1`, the cell number change stood at 8.33%. `COc1ccc(-c2noc(-c3ccc(Br)o3)n2)cc1OC`: the half-maximal activity concentration (AC50) under setting [2] was 2.59 µM [rising, partial curve]. For `O=C1COc2ccc(C(=O)COC(=O)C3CC(O)CN3S(=O)(=O)c3ccc(Cl)cc3)cc2N1` (stereo unspecified), the cell number change came out at 35.9%. Besides, under setting [2], the AC50 was 29.1 µM [rising, single point]. For the same compound, under setting [1], the half-maximal activity concentration (AC50) is 1.64 µM [falling, single point]. Take `COc1ccc(S(=O)(=O)N2CCN(c3cccc(C)c3C)CC2)cc1`: the cell number change is -26.7%. In addition, the AC50 under setting [1] is 6.51 µM [falling, single point].

Turning to `COc1ccc(C(C(=O)NC2CCCCC2)N(Cc2ccco2)C(=O)c2snc(C(N)=O)c2N)cc1` (stereo unspecified), the cell number change came out at 7.66%. Besides, under setting [1], the AC50 was 20.6 µM [falling, single point]. Turning to `Cc1cc(C)c(S(=O)(=O)N2CCN=C2c2ccccc2)c(C)c1`, the cell number change stood at 9.2%. Moreover, under setting [2], the AC50 was 1.03 µM [rising, full curve]. Further, the AC50 under setting [1] was 6.51 µM [rising, partial curve, poor fit]. `CCn1c(SCC(=O)NC(C)C)nnc1-c1cccs1`: the half-maximal activity concentration (AC50) reads like this: under setting [2], 1.16 µM [rising, full curve, poor fit]; under setting [1], 0.0058 µM [rising, full curve, poor fit]. For `O=C(NNC(=O)c1ccc(NC(=O)c2ccccc2)cc1)c1ccccc1`, the cell number change is -10.8%. Consider `O=C(NN=C1CCCC1)c1cccc(Br)c1`, for which the cell number change was -13.9%. Also, the AC50 under setting [1] was 0.731 µM [falling, single point]. As for `COc1ccccc1-n1cc2c([N+](=O)[O-])cc([N+](=O)[O-])cc2n1`, the cell number change is -2.78%. For the same compound, the concentration at half-maximal activity (AC50) under setting [2] was 0.092 µM [falling, partial curve, poor fit]. Besides, under setting [1], the AC50 is 0.58 µM [rising, single point].

Take `Cc1ccc(NC2CCCN(C(=O)CSc3ccncc3)C2)cc1C` (stereo unspecified): the cell number change was -12.4%. As to `Cc1cc(/C=C(\C#N)C(=O)NCc2ccccc2)cc(C)c1O`, the cell number change is -21.8%. Further, under setting [1], the concentration at half-maximal activity (AC50) is 29.1 µM [falling, single point].

For the compound `CCCn1c(N)c(N(CCOC)C(=O)c2cccc(Cl)c2)c(=O)[nH]c1=O`, the cell number change was 17.5%. The AC50 under setting [1] is 0.517 µM [falling, full curve]. With `CC(=O)Nc1ccc(S(=O)(=O)NCCc2ccccn2)cc1`, the cell number change was -8.05%.

Consider `C=CCn1c(O)c(N=NC(=S)Nc2ccc(OC)c(Cl)c2)c2ccccc21`, for which the cell number change was -22.6%. On to `Cc1cc(C)n(-c2nc(Nc3ccccc3C(F)(F)F)nc(-n3nc(C)cc3C)n2)n1`, for which the cell number change was -57.8%. Besides, the concentration at half-maximal activity (AC50) under setting [2] was 23.1 µM [falling, single point]. Further, under setting [1], the concentration at half-maximal activity (AC50) is 29.1 µM [falling, single point].

With `CN1CCN(C(=O)c2cc3nc(-c4ccc(Cl)cc4)cc(C(F)(F)F)n3n2)CC1`, the cell number change is 39.7%. Also, under setting [2], the concentration at half-maximal activity (AC50) was 14.6 µM [rising, partial curve]. The AC50 under setting [1] was 9.2 µM [rising, partial curve].

Regarding `COc1ccc(N(CC(=O)Nc2cccnc2)S(=O)(=O)c2ccccc2)cc1OC`, the cell number change worked out at 32.1%. Besides, the half-maximal activity concentration (AC50) under setting [2] was 32.6 µM [rising, partial curve, poor fit]. The AC50 under setting [1] was 6.51 µM [rising, partial curve, poor fit]. In the case of `Cc1ccccc1Nc1nc(N)nc(COC(=O)CCNS(=O)(=O)c2ccccc2)n1`, under setting [2], the AC50 was 0.092 µM [rising, full curve, poor fit]. For the compound `Cc1ccc2c(c1)c1nnc(SCC(=O)Nc3ccccc3C(F)(F)F)nc1n2CC(=O)O`, the AC50 under setting [1] is 0.731 µM [rising, single point].

For `CCCCOC(=O)C1=C(C)NC(=O)NC1c1ccc(OC)cc1` (stereo unspecified), the cell number change is -21.5%. Besides, the concentration at half-maximal activity (AC50) under setting [1] was 5.8 µM [falling, full curve]. Consider `O=C(NCCc1ccccc1)C1CCCN1S(=O)(=O)c1ccc(Cl)cc1` (stereo unspecified), for which the cell number change was 22.9%. As to `CC1(C(=O)NCc2cccnc2)CCC(=O)N1Cc1cccs1` (stereo unspecified), the cell number change was -18%. For the same compound, the AC50 under setting [2] is 6.51 µM [falling, single point]. On to `CC(=O)Nc1cc2c(=O)n(Cc3ccccc3)c(C)nc2cc1N1CCOCC1`, for which the AC50 runs as follows: under setting [2], 6.51 µM [rising, single point]; under setting [1], 4.11 µM [rising, single point]. As to `O=C(CN1CCC(Cc2ccccc2)CC1)NC(=O)NC1CCCCC1`, under setting [1], the concentration at half-maximal activity (AC50) is 0.00731 µM [falling, full curve].

Consider `O=C1CN(C(=O)c2cccs2)c2ccccc2N1`, for which the cell number change was -36.5%. Further, under setting [2], the AC50 is 0.0461 µM [falling, full curve, poor fit].

With `O=C(Nc1ccccc1)Nc1ccno1`, the cell number change was determined as 9.86%. `CCOC(=O)/C(=C/Nc1ccc(F)c(F)c1)[N+](=O)[O-]`: the cell number change is 4.27%. The AC50 under setting [1] is 0.00651 µM [falling, full curve, poor fit]. With `CN(C)S(=O)(=O)c1cccc(NC(=O)CN2C(=O)C3C4C=CC(C4)C3C2=O)c1` (stereo unspecified), the half-maximal activity concentration (AC50) reads like this: under setting [2], 0.092 µM [rising, full curve, poor fit]; under setting [1], 6.51 µM [rising, single point]. On to `O=C(CSc1nc2c(sc3ccccc32)c(=O)n1Cc1ccccc1)NCC1CCCO1` (stereo unspecified), for which the concentration at half-maximal activity (AC50) under setting [1] is 4.11 µM [rising, partial curve].

Consider `CC(C)Oc1ccc(C(CC(=O)N2CCOCC2)C(C)C)cc1` (stereo unspecified), for which the cell number change was -34.2%. Also, the AC50 under setting [2] is 3.66 µM [falling, full curve, poor fit].

For the compound `Cc1nnc(NC(=O)c2csc3c2CCCC3)s1`, the cell number change is 93.6%. Under setting [2], the half-maximal activity concentration (AC50) is 16.4 µM [rising, partial curve]. Consider `COc1cc(/C=C(/C#N)C(=O)NCCc2c[nH]c3ccccc23)ccc1OCc1ccccc1F`, for which the cell number change was -10.7%. Further, the AC50 under setting [2] was 6.51 µM [falling, single point]. On to `O=C(Nc1ccc(Cl)c(Cl)c1)N1CCCCCC1`, for which, under setting [1], the AC50 was 29.1 µM [falling, single point].

With `Cc1ccc2c(c1)sc1nc(=O)ccn12`, the cell number change came to 23.9%. Further, the concentration at half-maximal activity (AC50) under setting [2] is 0.259 µM [rising, full curve, poor fit]. For `O=C(N/N=C\c1cccs1)c1sccc1-n1cccc1`, the cell number change is -28.6%. Moreover, the AC50 under setting [1] is 29.1 µM [falling, single point]. Take `O=C(CSC(=S)N1CCCC1)Nc1cc2c(cc1Br)OCCO2`: the cell number change was 16.8%. Besides, the concentration at half-maximal activity (AC50) under setting [2] is 0.13 µM [rising, full curve, poor fit]. For the same compound, the half-maximal activity concentration (AC50) under setting [1] is 0.58 µM [falling, single point]. With `CC1CC(OC(=O)C2CCN(S(=O)(=O)c3ccc(F)cc3)CC2)C(=O)O1` (stereo unspecified), the cell number change is -18.9%. In the case of `CCCN(CC(=O)Nc1ccccc1C)C(=O)CCCc1c[nH]c2ccccc12`, the cell number change was -59.3%. For the same compound, the AC50 under setting [2] was 2.06 µM [falling, full curve]. For the same compound, under setting [1], the AC50 was 2.06 µM [falling, partial curve]. On to `CCCNC(=O)c1ccc(N2CCC3(CC2)CC(c2ccccc2)=NO3)c(NC(=O)c2cccc(C)c2)c1`, for which the AC50 under setting [1] was 0.651 µM [rising, partial curve, poor fit]. Turning to `COC(=O)c1sc2[nH]c(=S)n(N)c(=O)c2c1C`, the cell number change stood at 38.2%. `CCOC(=O)c1c(C)[nH]c(C(=O)OCC(=O)NCc2ccc(C)cc2)c1C`: the cell number change was determined as 8.96%. Further, under setting [1], the concentration at half-maximal activity (AC50) is 0.058 µM [rising, full curve, poor fit]. With `CCOC(=O)/C(=N/Nc1ccccc1)N1CCCc2ccccc21`, the cell number change was -44.8%. The AC50 under setting [2] is 29.1 µM [falling, single point].

For the compound `Cc1nn(-c2c(Cl)cc(Cl)cc2Cl)c(=O)c2ccccc12`, the cell number change is -2.13%.

Regarding `O=C(NN=C1c2ccccc2-c2ccccc21)c1ccccc1Br`, the cell number change was -8.93%. For the same compound, under setting [2], the half-maximal activity concentration (AC50) was 0.731 µM [rising, full curve, poor fit]. For the same compound, the AC50 under setting [1] was 0.58 µM [rising, single point]. Consider `CCCNC(=O)c1cc2c(C(F)(F)F)nn(C)c2s1`, for which the cell number change is 2.76%.

As for `Fc1cccc(-c2n[nH]c(=S)n2-c2ccccc2)c1`, the cell number change is -9.49%.
